In patent publication US10076520B2, “Use of tyrosine kinase inhibitor in cancer treatment” (THE REGENTS OF THE UNIVERSITY OF COLORADO, A BODY CORPORATE, priority 2013, dated 2018):
For at least one compound, name, drawing or mass did not settle the structure. Some compounds share one wording; it may come from a single statement.

Tested on: ParC5 cells
Assay: Irradiation-induced apoptosis (caspase-3 activity) in ParC5 cells
Format: cell-based, rat
Settings: parC5 cells pre-treated 30 mins prior to 10 Gy irradiation; harvested after 18 hrs; p<0.05
Experimental: Cells were harvested after an additional 18 hrs and casapase 3 activity were measured.

Row | SMILES | apoptosis (caspase 3 activity)
1 | Cc1ccc(C(=O)Nc2ccc(CN3CCN(C)CC3)c(C(F)(F)F)c2)cc1C#Cc1cnc2cccnn12 [ponatinib] | significant protection from apoptosis
2 | Cc1nc(Nc2ncc(C(=O)Nc3c(C)cccc3Cl)s2)cc(N2CCN(CCO)CC2)n1 [dasatinib] | significant protection from apoptosis
